In the supplement of paper PMC3334620:
In all, about 33,000 sequences were measured (“E-score (-0.5 to 0.5)”: median about -0.016, highest 2% from about 0.3 on). This is one part of the list.

target: T1, Yer184c (UniProt P39961); test: PBM E-score (8-mer binding enrichment) (E-score (-0.5 to 0.5)); higher = stronger / more preferred TF binding; details: protein concentration: 100 nM; construct: GST-full length
T1 sequence: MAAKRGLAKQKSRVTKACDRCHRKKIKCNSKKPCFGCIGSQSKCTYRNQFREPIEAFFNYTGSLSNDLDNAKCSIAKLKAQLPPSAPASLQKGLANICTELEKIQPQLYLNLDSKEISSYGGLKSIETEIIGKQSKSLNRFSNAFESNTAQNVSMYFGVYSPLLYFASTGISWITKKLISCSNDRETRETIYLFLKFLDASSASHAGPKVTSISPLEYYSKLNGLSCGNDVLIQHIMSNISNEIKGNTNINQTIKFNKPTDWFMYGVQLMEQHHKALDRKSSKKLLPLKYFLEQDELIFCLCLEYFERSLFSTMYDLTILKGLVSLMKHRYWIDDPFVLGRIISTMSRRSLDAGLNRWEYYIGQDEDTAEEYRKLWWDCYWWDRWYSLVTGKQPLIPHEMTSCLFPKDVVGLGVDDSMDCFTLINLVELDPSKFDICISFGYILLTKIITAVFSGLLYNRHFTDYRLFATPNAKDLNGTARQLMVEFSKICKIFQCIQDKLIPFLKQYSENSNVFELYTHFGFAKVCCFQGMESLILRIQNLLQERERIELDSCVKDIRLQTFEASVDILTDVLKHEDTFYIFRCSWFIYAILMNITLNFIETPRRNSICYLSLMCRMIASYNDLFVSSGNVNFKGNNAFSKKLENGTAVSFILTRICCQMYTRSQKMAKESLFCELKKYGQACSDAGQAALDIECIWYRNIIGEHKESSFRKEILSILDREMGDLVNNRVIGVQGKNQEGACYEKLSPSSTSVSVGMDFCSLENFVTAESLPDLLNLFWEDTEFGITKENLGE
Method in brief: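 Yeast transcription factors carrying a GST tag, as full-length proteins or DNA-binding domains, were produced by PURExpress in vitro transcription/translation. About 100-200 nM protein was applied to universal all-10-mer Agilent arrays, double-stranded by primer extension on fresh or once-stripped slides. Bound protein was detected with fluorescent anti-GST, and scans were normalised with masliner. The Universal PBM Analysis Suite gave each ungapped eight-base word, pooled with its reverse complement, an E-score, a modified Wilcoxon-Mann-Whitney statistic.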

Sequence | PBM E-score
AAGCACCC | -0.11
AAATATGA | 0.0794
ATCGAACG | -0.107
ACCTACCT | -0.107
ATGACGCC | -0.186
ACATCTGC | -0.309
GGTGTCGA | -0.132
CTGAGGAC | -0.0618
TACTTCCA | 0.00323
ATCCACAC | -0.142
AAGTGTCG | 0.0981
CGTCGGTC | 0.115
ACTAATCG | 0.122
CGCGCTAG | 0.00944
GAGCACGA | 0.0734
GCCATACA | -0.0148
GATGATCA | 0.0362
AGCTAGAT | -0.104
ATAGGAGA | -0.337
GGCCGTAA | 0.189
CCCCTTGA | -0.0387
TAGGTTCA | 0.117
GTTAGCTA | -0.119
CCGGAATA | 0.339
GTTAAGCA | 0.031

Sequence | PBM E-score
GCAGACAC | 0.0863
ATCAAATG | 0.15
AGAATGCA | 0.0885
CGGCATGC | 0.272
ACTAGGGG | -0.256
TGCCTACA | -0.0126
GCGGGGAC | -0.0805
GTGGTTAA | 0.0141
CGTCGTGC | 0.078
AGGTATAA | 0.0783
AATGTAAA | 0.131
CCTGGTCA | -0.308
AGATCGTG | -0.18
AAGGCCCA | -0.266
CACGCATG | -0.0511
AATCATCT | -0.0795
CTATACGA | 0.00809
CACGGCGG | 0.00982
ACCTATCA | -0.101
AAGATAAG | 0.0357
ACCTAGTA | -0.242
TTCTGCAA | 0.128
ATATGCTC | 0.00244
ATACGCAT | 0.0347
AAGCAGGA | 0.0757

Exported as a markdown table: part of the list above.

| Sequence | PBM E-score |
| --- | --- |
| GCAGACAC | 0.0863 |
| AGGTATAA | 0.0783 |
| AAGGCCCA | -0.266 |
| CACGGCGG | 0.00982 |
| AAGATAAG | 0.0357 |
| ACCTAGTA | -0.242 |

(continued)

Sequence | PBM E-score
CCATATGG | -0.118
GGCCTTAA | 0.0628
TCTGCCAA | -0.017
GGGCTGTA | -0.205
TACCGGTA | 0.23
AGACGATA | 0.0566
AATGCGGA | 0.173
AACCAAGT | 0.014
CTGAGTCA | -0.161
ATGTGACC | -0.109
ATGAGAGA | 0.0607
CCCCCAGC | -0.259
CATACCGA | 0.0789
AGACCTGC | -0.23
AACCGAAA | 0.345
AAGACTTA | 0.0327
AGTCTGCC | -0.0262
CGACTGGA | -0.0689
GGTCCCAA | -0.218
CTCGACTC | -0.158
ATGGTAAG | -0.11
GAAATTCC | 0.0108
ACCTACAA | 0.0682
ACAGGTAC | -0.19
TATCAGGA | 0.182

Sequence | PBM E-score
CAAACATC | 0.202
AACGCGCC | 0.0479
AAATAGTT | 0.153
GCGGACGC | -0.106
CCCATTGC | -0.119
GGATGGAC | -0.0483
CATTCTGA | 0.104
ACAGTTCA | 0.153
ATCACTGC | 0.106
CGCCTCCA | -0.0793
TCACTGGA | -0.0932
GAACGATC | 0.0882
CCTCCCGA | 0.046
CTACCCGC | -0.011
GTCTGTAA | 0.0917
CACCCTAA | -0.135
GCGCTCAA | -0.0579
GGCCCAAC | -0.0823
GCTCTGAC | -0.11
ACCACATG | -0.0788
CCGGAACA | 0.435
TAAATGAA | 0.00284
ACTTAGGC | -0.0534
ACCCCGTC | -0.184
CTGCCAAC | -0.046

Sequence | PBM E-score
AGTTAAAC | -0.0413
AACCATGC | 0.0582
AAAGTCAA | 0.0734
ACGGCCAG | 0.0144
AAATCAAT | 0.137
AGGGTTAC | -0.328
CGGCCCCG | 0.0672
CTATCTAA | -0.0743
GCAGGCAA | 0.066
AGTCCAGG | -0.206
CGATGCAC | -0.135
AACAAGAT | 0.151
CAACCGCG | 0.306
GATCACAC | -0.0414
CGGTTCCA | 0.123
GCTGTCAC | -0.154
AGGGTTTC | -0.118
CACTCTAG | -0.0442
CCCGGAGG | 0.0124
AGAACGGG | -0.0299
CTGAAAAA | 0.0158
CCTTATTC | -0.0768
ACACCGCC | -0.0396
ACAACGTA | -0.00276
ACCTGCAC | -0.157

Sequence | PBM E-score
CATATCGC | -0.0129
GGGGGAAC | -0.34
GAAATTGC | 0.031
GGTTACAC | -0.101
AAACCACG | -0.01
CCCGAGAC | 0.0787
CGCTAAGC | 0.0776
AGGACTGA | -0.0956
AGTCATTA | -0.17
ACAGAGAC | -0.105
ACACTCGC | 0.0547
CGGTGGTA | -0.0143
GTAGGTCA | -0.294
GAGTTGGA | -0.0447
GACATCCA | -0.177
GCCAATCA | -0.24
GAGGCAGC | -0.201
GGATCTCA | -0.0215
CGTGATAC | -0.184
AATGCGGC | 0.0994
GTATGGGA | -0.214
ATTTGACG | 0.0483
CCTCCCTC | -0.0488
GCAACTCC | 0.0666
GAACCCAA | -0.0482

Sequence | PBM E-score
ATCAGATG | -0.0466
AACGGGAT | 0.102
CTACGCCC | -0.188
CTATAAAC | 0.159
TAGTTCGA | 0.00019
AGTAGGGC | -0.0259
CCACCAGG | -0.199
ACCCTTTG | -0.174
CGTTTTAC | 0.111
CAAAGTCG | -0.116
AGTGGTAG | -0.245
ATTGTGCC | -0.051
GCGCGAAC | 0.146
ATGGTAGG | -0.184
CTAGATTA | 0.113
CAGTACGA | 0.139
TCCAACGA | -0.117
ACCGAAAC | 0.264
CTTAGGGC | -0.0132
AGGTCACC | -0.0933
CAATGTAG | -0.0569
GACGTAGA | -0.335

Copied from above (5 entries):
Sequence | PBM E-score
TAGGTTCA | 0.117
GTTAGCTA | -0.119
CCGGAATA | 0.339
GTTAAGCA | 0.031
GCAGACAC | 0.0863
